Publication PMC5338303, “Unveiling the Metabolic Changes on Muscle Cell Metabolism Underlying p-Phenylenediamine Toxicity” (Frontiers in Molecular Biosciences, 2017)

Tested on: central carbon metabolic pathways of C2C12 cells
Assay: Mass isotopomer distribution analysis (MIDA) with [1,2-13C2]-glucose, GC/MS
Assay type: cell-based, Mus musculus mouse
Conditions: PPD-treated C2C12, 24 h
Description: To track and measure the substrate carbon flux through central carbon metabolic pathways of C2C12 cells when treated with PPD, mass isotopomer distribution analysis (MIDA), and metabolic modeling approaches were used.
Cells were cultured in DMEM (Biowithaker) °supplemented with 10% dialyzed heat-inactivated Fetal Bovine Serum (FBS), glucose (10 mM, 50% isotope enrichment [1,2-^13C2]-glucose), asparagine (20 mg/ml), penicillin (100 U/ml), and streptomycin (100 μg/ml). […] Initially each flask contained 10^6 cells and the incubation was carried out for 24 h. To separate medium and cell pellets, cells were centrifuged at the end of incubation (3000 × g, 5 min). Afterwards, pellet and medium were stored at −20°C for metabolite isolations.
• Glucose. A mixed DOWEX 50-DOWEX 1 ionic exchange column was used to corroborate that the original medium contained 50% of labeled glucose ([1,2-^13C2] D-glucose). First, 500 μl of medium and after 6 ml of milliQ water were passed through the column and were collected into a glass tube. Next, it was lyophilized for 12 h to eliminate the remaining liquid and the dried sample was stored. Finally, hydroxyl-amine in pyridine and acetic anhydride were used to derivatize glucose to its aldonitrile form. The ion cluster was set to m/z 328 (C1–C6, chemical ionization; Wamelink et al., [2008]). • Glycogen. Glycogen for biochemical and isotopomerics distribution determination was extracted as described in Burchert ([2007]), by direct digestion of sonicated extracts with amyloglucosidase. Measurement of glucose released from glycogen was done by using the isotopomer [U-13C6-1,2,3,4,5,6,6-D7]D-glucose (or [U-13C-D7]-glucose as shorter name) as recovery standard and internal standard quantification procedures. The hydrolyzed glucose was isolated using ion exchange chromatography (Mao et al., [2002]) and was derivatized to its aldonitrile acetate form using hydroxyl-amine in pyridine and acetic anhydride. We monitored the ion cluster around the m/z 328 (C1–C6, chemical ionization; Wamelink et al., [2008]). • Lactate. Lactate from the culture media of C2C12 cells, which had been cultured and treated as explained above, was extracted by ethyl acetate. In more detail, 1 ml of culture medium was acidified with 2–3 drops of HCl, followed by addition of 1 ml of ethyl acetate and a little amount of sodium chloride and 1 min shaken. Next, the samples rest for 2 min and were centrifugated at 4,000 rpm for 10 min in a Jouan B3.11 centrifuge. Next, organic phase was transferred to a tube and the remaining ethyl acetate was removed by applying aa slight N2 pressure for 10–15. Lactate was derivatized to its propylamideheptafluorobutyric form. Next, the m/z 328 was monitored (C1–C3, chemical ionization, Wamelink et al., [2008]). • Ribose from RNA. Acid hydrolysis of the cellular RNA was used to isolate ribose from C2C12 treated and non-treated cells with the fractions as indicated above. First, 1 ml of Trizol was added and dissolved by sonication (30 s) to the cold pellets, next, it was transferred to free RNase eppendorfs and 200 μl of chloroform were added. Next, the samples were shaken and centrifuged in an Eppendorf microfuge for 30 min at 14,000 rpm at 4°C. Chloroform and RNA from the non-colored upper phase was collected and 1 ml of cold 2-propanol was added and the mixture was reposing overnight to precipitate the DNA. Next, samples were centrifuged as indicated above. RNA was further purified by removing the supernatant, next 1 ml of 75% cold ethanol was added. The samples were shaken and centrifuged to eliminate the supernatant and re-suspended with 10 μl of miliQ water and 2 ml of HCl 2N. Next, the samples were heated at 100°C for 2 h, cooled at room temperature (acid hydrolysis of RNA) and dried with air preasured to eliminate the remaining liquid or stored stored at −80°C. Acetic anhydride and hydroxyl-amine in pyridine were used to derivatize ribose to the aldonitrile acetate form. […]

Nc1ccc(N)cc1 [PPD, p-phenylenediamine]
Glucose m0 isotopologue fraction, mean: 0.542
Glucose m1 isotopologue fraction, mean: 0.0016
Glucose m2 isotopologue fraction, mean: 0.456
Glucose m3 isotopologue fraction, mean: 0.0001
Glucose m4 isotopologue fraction, mean: 0
Glucose m5 isotopologue fraction, mean: 0
Glucose m6 isotopologue fraction, mean: 0
Glutamate_c2-4 m0 isotopologue fraction, mean: 0.937
Glutamate_c2-4 m1 isotopologue fraction, mean: 0.0412
Glutamate_c2-4 m2 isotopologue fraction, mean: 0.0188
Glutamate_c2-4 m3 isotopologue fraction, mean: 0.00305
Glutamate_c2-4 m4 isotopologue fraction, mean: 0
Glutamate_c2-4 m5 isotopologue fraction, mean: 0
Glutamate_c2-5 m0 isotopologue fraction, mean: 0.939
Glutamate_c2-5 m1 isotopologue fraction, mean: 0.0209
Glutamate_c2-5 m2 isotopologue fraction, mean: 0.0373
Glutamate_c2-5 m3 isotopologue fraction, mean: 0
Glutamate_c2-5 m4 isotopologue fraction, mean: 0.0026
Glutamate_c2-5 m5 isotopologue fraction, mean: 0
Glycogen m0 isotopologue fraction, mean: 0.773
Glycogen m1 isotopologue fraction, mean: 0.0006
Glycogen m2 isotopologue fraction, mean: 0.225
Glycogen m3 isotopologue fraction, mean: 0.0007
Glycogen m4 isotopologue fraction, mean: 0
Glycogen m5 isotopologue fraction, mean: 0.0005
Glycogen m6 isotopologue fraction, mean: 0.0007
Lactate m0 isotopologue fraction, mean: 0.847
Lactate m1 isotopologue fraction, mean: 0.0078
Lactate m2 isotopologue fraction, mean: 0.145
Lactate m3 isotopologue fraction, mean: 0
Ribose-5-P m0 isotopologue fraction, mean: 0.865
Ribose-5-P m1 isotopologue fraction, mean: 0.0896
Ribose-5-P m2 isotopologue fraction, mean: 0.0294
Ribose-5-P m3 isotopologue fraction, mean: 0.0139
Ribose-5-P m4 isotopologue fraction, mean: 0.0018
Ribose-5-P m5 isotopologue fraction, mean: 0
